Test results from patent US8129532B2, “Amino(oligo)thiophene dyes, preparation thereof, and optical methods of use” (The University of Connecticut, priority 2007, dated 2012).

Test system: layer V pyramidal neurons
Experiment: Intracellular dye spread (diffusion, loading, incubation, simple filling) in pyramidal neurons
Type: cell-based, Sprague Dawley rats
Conditions: for Simple filling time / Simple filling time, somatic ROI: 400 μM dye in pipette kept on cell; for Simple filling time: time to good optical signals (single AP); for Incubation time: after dye loading; for Incubation time / Dye loading time: stopped at experimenter's discretion; for Dye loading time: cells with good optical signals from basal dendrites; for Simple filling time, somatic ROI: somatic ROI (footnote a)

| SMILES | Simple filling time [min] | Incubation time [min] | Dye loading time [min] | Simple filling time, somatic ROI |
| --- | --- | --- | --- | --- |
| CN(C)c1ccc(/C=C/c2ccc(/C=C/c3cc[n+](CCC[N+](C)(C)C)c4ccccc34)o2)cc1 [JPW-3080] | 43.1 ± 4.5 | 54.0 ± 35.2 | 26.8 ± 3.4 | – |
| CCN(CC)c1ccc2cc(/C=C/C=C/c3cc[n+](CCC[N+](C)(C)C)c4ccccc34)ccc2c1.[Br-].[Br-] [JPW-4090, Di-2-ANBDQPQ] | 58.3 ± 12.2 | 69.5 ± 37.8 | 34.9 ± 11.1 | – |
| CCN(CC)c1ccc(-c2ccc(/C=C/c3cc[n+](CCC[N+](CC)(CC)CC)cc3)s2)s1 [PY-1261, Di-2-BTEPPTEA] | 32.5 ± 3.5 | – | – | – |
| CCCCN(CCCC)c1ccc(-c2ccc(/C=C/c3cc[n+](CCC[N+](CC)(CC)CC)cc3)s2)s1 [PY-1266, Di-4-BTEPPTEA] | 45.8 ± 8.2 | 58.5 ± 13.4 | 32.5 ± 7.8 | – |
| CCN(CC)c1ccc(-c2ccc(-c3ccc(/C=C/c4cc[n+](CCC[N+](CC)(CC)CC)cc4)s3)s2)s1 [PY-1268] | – | – | – | 55.0 ± 8.2^a min |
| CCCN(CCC)c1ccc(-c2ccc(/C=C/c3cc[n+](CCC[N+](CC)(CC)CC)cc3)s2)s1 [PY-1286, Di-3-BTEPPTEA] | 50.0 ± 10.0 | 83.3 ± 43.7 | 52.3 ± 6.7 | – |
| CCCCN(CCCC)c1ccc2cc(/C=C/C=C/c3cc[n+](CCC[N+](C)(C)C)c4ccccc34)ccc2c1.[Br-].[Br-] [di-4-ANBDQPQ, Di-4-ANBDQPQ, reference compound] | – | – | – | 46.5 ± 12.0^a min |
